Chains of the proteins cited; added tags and fusions are not shown. Lines headed by an entry give the natural chain unless they say otherwise; changes in a name come on top.
UniProt P68371: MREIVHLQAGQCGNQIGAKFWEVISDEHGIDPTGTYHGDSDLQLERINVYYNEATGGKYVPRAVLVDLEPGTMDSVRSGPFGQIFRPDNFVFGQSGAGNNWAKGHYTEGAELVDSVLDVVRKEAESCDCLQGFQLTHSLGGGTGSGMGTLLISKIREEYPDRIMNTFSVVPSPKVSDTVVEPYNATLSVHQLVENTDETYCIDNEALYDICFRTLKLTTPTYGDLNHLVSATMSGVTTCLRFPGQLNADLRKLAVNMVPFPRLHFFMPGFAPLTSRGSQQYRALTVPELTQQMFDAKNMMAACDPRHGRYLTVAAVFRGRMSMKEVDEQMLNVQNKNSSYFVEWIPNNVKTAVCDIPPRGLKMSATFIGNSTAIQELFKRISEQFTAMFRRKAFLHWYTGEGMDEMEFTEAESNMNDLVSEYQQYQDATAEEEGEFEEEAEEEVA
UniProt P0DPH7: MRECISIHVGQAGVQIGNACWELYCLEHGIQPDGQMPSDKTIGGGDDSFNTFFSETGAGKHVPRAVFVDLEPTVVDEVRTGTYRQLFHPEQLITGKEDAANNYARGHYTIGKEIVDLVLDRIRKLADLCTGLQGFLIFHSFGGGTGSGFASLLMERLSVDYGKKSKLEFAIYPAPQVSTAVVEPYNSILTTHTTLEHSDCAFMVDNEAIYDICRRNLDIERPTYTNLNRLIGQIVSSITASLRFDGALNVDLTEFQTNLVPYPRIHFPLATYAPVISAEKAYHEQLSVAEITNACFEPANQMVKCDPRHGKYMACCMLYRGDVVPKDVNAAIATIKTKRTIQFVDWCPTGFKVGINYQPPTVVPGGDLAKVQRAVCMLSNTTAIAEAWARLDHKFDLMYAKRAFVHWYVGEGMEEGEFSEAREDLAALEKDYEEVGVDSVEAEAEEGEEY
UniProt P68366: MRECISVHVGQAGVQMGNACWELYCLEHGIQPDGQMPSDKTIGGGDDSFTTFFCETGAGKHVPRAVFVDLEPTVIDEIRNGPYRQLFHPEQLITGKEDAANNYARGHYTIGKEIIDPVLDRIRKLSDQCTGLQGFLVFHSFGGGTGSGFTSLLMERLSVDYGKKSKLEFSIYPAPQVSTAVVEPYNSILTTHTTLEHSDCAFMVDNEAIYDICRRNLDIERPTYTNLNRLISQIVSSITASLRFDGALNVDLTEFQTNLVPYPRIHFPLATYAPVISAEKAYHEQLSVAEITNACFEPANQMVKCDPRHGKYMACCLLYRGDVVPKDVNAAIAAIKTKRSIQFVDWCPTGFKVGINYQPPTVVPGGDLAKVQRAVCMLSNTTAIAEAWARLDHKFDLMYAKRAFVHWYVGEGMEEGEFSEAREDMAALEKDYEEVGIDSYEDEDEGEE
UniProt Q13509: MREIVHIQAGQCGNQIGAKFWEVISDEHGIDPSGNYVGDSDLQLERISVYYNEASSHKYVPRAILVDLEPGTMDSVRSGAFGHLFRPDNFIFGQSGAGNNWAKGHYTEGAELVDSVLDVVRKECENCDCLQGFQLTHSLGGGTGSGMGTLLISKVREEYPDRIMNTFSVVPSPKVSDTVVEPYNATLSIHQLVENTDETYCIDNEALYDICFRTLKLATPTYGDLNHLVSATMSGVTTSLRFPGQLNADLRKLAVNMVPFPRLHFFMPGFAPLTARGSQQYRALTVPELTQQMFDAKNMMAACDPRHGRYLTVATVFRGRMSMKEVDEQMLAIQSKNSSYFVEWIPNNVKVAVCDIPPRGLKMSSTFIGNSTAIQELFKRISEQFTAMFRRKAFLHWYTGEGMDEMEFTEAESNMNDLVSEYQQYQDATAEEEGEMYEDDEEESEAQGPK
UniProt Q71U36: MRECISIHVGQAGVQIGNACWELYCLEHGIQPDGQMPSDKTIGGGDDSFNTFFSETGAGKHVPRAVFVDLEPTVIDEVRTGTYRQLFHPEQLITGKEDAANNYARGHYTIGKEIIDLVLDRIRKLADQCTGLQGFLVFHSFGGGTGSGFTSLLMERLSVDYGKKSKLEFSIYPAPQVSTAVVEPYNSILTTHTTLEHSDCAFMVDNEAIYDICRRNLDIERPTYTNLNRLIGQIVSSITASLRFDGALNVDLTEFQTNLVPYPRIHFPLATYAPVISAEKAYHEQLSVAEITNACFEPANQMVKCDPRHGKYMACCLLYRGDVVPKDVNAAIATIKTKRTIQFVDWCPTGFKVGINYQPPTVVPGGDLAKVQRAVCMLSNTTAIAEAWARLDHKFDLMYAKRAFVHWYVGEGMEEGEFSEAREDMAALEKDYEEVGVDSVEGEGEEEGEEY
UniProt P04350: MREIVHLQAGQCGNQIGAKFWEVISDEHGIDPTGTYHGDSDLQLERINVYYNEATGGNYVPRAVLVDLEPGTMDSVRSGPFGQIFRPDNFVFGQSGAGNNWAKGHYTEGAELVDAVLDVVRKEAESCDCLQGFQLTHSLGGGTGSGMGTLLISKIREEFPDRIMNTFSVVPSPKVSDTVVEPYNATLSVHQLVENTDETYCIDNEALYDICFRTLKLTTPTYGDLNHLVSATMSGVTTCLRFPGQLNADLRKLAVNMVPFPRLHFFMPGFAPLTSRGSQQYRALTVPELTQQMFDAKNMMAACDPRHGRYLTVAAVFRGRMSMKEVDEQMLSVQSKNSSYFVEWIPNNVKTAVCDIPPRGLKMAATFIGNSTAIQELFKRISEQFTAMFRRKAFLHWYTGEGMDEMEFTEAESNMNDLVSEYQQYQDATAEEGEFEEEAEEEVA
UniProt Q3ZCM7: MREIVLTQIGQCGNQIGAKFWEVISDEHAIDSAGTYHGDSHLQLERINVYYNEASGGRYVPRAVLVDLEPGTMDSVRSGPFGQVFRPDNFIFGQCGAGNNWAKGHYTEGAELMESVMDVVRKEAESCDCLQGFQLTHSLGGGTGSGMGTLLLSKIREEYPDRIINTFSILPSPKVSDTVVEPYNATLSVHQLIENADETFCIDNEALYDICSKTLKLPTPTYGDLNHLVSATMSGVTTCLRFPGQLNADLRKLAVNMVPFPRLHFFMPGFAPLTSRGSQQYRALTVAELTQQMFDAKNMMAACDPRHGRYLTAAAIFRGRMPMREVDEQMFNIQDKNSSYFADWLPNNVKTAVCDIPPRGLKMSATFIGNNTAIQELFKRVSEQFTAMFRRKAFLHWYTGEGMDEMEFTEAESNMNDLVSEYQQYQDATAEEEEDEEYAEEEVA
UniProt P07437: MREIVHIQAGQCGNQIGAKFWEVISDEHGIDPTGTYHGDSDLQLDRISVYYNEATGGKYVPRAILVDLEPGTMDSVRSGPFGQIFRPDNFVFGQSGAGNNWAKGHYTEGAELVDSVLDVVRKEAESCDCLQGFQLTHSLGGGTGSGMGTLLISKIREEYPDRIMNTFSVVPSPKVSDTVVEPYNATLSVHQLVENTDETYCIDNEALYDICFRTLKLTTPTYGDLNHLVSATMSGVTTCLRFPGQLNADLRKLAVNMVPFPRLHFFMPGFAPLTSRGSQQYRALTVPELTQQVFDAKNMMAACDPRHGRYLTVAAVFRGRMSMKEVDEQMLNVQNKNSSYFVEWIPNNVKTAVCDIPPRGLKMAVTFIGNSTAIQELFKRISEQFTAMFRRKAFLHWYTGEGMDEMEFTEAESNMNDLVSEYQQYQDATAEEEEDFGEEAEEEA
UniProt P68363: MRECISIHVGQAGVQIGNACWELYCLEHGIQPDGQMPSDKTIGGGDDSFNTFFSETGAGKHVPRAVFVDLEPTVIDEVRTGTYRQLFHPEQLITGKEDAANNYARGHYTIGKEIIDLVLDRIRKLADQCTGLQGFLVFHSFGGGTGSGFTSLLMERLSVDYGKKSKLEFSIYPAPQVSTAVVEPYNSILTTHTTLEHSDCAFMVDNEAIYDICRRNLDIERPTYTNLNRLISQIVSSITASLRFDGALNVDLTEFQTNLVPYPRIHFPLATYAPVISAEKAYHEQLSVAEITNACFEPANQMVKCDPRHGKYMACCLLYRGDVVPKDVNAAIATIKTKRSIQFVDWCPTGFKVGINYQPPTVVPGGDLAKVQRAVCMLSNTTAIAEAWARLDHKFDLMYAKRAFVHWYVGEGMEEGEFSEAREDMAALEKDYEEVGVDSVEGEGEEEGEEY
UniProt Q9BQE3: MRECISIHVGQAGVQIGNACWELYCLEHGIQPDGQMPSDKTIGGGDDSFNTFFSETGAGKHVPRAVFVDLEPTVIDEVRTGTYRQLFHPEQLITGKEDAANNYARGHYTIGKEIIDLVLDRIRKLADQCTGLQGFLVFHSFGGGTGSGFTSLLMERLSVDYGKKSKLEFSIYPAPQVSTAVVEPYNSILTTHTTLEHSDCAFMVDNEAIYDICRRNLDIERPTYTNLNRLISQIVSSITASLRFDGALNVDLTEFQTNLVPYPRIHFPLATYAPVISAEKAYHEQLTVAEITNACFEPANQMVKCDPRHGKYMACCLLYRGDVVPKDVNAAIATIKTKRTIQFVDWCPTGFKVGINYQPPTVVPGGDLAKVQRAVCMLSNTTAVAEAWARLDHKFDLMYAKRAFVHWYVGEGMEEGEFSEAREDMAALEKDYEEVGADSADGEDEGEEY
UniProt Q6PEY2: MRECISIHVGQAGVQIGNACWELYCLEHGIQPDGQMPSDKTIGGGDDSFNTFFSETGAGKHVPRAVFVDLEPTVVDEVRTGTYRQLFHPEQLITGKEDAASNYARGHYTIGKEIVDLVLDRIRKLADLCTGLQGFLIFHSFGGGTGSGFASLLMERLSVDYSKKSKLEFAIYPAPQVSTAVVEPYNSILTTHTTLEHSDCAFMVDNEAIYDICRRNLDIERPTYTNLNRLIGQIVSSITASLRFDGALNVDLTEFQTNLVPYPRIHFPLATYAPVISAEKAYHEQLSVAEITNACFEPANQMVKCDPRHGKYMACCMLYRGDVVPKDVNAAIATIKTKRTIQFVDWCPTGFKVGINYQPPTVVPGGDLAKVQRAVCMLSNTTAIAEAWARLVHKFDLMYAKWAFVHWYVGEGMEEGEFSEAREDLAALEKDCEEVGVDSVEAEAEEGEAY
UniProt Q13885: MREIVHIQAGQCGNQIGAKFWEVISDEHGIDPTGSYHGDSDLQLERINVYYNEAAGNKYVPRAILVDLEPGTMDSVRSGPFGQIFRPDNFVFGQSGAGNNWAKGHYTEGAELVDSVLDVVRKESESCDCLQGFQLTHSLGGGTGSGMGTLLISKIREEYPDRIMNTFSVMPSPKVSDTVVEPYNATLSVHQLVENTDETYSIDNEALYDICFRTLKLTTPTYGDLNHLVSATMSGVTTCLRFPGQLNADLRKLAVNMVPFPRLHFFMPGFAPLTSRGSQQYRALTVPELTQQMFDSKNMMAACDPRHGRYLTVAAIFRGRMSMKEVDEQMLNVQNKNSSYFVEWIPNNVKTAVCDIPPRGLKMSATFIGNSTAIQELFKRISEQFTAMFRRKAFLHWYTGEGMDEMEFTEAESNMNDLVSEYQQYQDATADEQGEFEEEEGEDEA
UniProt Q9BVA1: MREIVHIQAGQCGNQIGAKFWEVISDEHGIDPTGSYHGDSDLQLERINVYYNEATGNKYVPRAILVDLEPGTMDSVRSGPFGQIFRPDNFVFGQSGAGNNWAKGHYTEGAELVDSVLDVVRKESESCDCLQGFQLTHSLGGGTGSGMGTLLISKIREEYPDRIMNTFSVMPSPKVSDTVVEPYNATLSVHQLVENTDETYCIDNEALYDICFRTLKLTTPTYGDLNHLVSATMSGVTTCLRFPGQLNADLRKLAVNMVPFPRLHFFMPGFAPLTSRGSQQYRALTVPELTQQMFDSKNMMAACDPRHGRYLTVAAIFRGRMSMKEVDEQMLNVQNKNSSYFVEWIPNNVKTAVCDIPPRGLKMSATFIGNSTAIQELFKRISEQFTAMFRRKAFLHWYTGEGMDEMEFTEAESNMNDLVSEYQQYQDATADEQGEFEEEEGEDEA
UniProt Q9BUF5: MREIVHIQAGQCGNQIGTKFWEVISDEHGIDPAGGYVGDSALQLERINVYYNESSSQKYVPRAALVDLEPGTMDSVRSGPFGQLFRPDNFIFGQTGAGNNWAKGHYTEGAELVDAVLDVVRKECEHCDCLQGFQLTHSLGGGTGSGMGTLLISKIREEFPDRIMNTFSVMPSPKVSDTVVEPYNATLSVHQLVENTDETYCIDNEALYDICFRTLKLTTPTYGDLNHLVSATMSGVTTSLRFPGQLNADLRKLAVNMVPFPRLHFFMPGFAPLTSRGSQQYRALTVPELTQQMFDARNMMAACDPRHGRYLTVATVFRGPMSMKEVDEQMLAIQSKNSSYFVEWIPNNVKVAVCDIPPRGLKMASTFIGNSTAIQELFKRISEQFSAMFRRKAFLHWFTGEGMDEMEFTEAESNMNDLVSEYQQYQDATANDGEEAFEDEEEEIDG

In ChEMBL document CHEMBL4196091 (Eur J Med Chem, 2018):

Experiments:
HEK293 = assay: Antiproliferative activity against HEK293 cells after 2 days by MTT assay; format: ADME, cell-based; settings: Homo sapiens, HEK293, 48 h
A549 = assay: Antiproliferative activity against human A549 cells after 2 days by MTT assay; format: functional, cell-based; settings: A549, 48 h
Tubulin (Homo sapiens) = Tubulin (Homo sapiens) (UniProt P68371+Q9H4B7+P0DPH7+P68366+Q13509+Q71U36+P04350+Q3ZCM7+P07437+P68363+Q9BQE3+Q6PEY2+Q13885+Q9BVA1+Q9BUF5); assay: Inhibition of tubulin polymerization (unknown origin) in glycerol-assembly buffer assessed as time required to reach 50% of polymerization equilibrium at 27.5 uM measured every 30 secs for 2 hrs in presence of GTP (reference value: 16.5 +/- 0.8 min); format: protein-complex assay
[1] = Selectivity index, ratio of IC50 for HEK293 cells to IC50 for human MCF7 cells
[2] = Selectivity index, ratio of IC50 for HEK293 cells to IC50 for human A549 cells
[3] = Selectivity index, ratio of IC50 for HEK293 cells to IC50 for human HT-29 cells
MCF7 = assay: Antiproliferative activity against human MCF7 cells after 2 days by MTT assay; format: functional, cell-based; settings: MCF7, 48 h
HT-29 = assay: Antiproliferative activity against human HT-29 cells after 2 days by MTT assay; format: functional, cell-based; settings: HT-29, 48 h

SMILES: COc1cc2c(c(OC)c1OC)-c1ccc(OC)c(=O)cc1[C@@H](N)CC2
- IC50 (HEK293): 25.1 nM
- IC50 (A549): 16.8 nM
- IT50 (Tubulin (Homo sapiens)): 27 min
- selectivity ratio [1]: 1.6
- selectivity ratio [2]: 1.5
- selectivity ratio [3]: 2
- IC50 (MCF7): 15.5 nM
- IC50 (HT-29): 12.4 nM
